Reference: article PMC4658182, “The Synthetic Antimicrobial Peptide 19-2.5 Interacts with Heparanase and Heparan Sulfate in Murine and Human Sepsis” (PLoS ONE, 2015)

Assay: Control experiments for heparan sulfate ELISA (interference by peptide)

## peptide 19–2.5: synthetic antimicrobial peptide 19–2.5 belongs to the class of synthetic anti-lipopolysaccharide peptides (SALP = synthetic anti-LPS peptides)
20μg/ml peptide in physiological saline (0.9%)
  detection of peptide by the HS ELISA: no detection
Peptide added to ELISA positive control (300ng/ml heparan sulfate)
  effect of peptide on detected HS concentration: did not alter the detected HS concentration
